Inconclusive means that the source gave no clear call. Such entries were picked first, then a sample of the others. Where the call is inconclusive, the potency comes from a doubtful curve fit. Calls of active or inactive are those of the source. How the source made its calls: active means hit-call score of the fitted dose curve at least 0.9, where 1 is the maximum; inconclusive means response in the unintended direction; inactive means score below 0.9.
target: human LYN Proto-Oncogene, Src family Tyrosine Kinase (LynA), LYN (gene 4067) (UniProt P07948); assay: NVS_ENZ_hLynA: NovaScreen (NVS) Enzymatic Assay for human LYN Proto-Oncogene, Src family Tyrosine Kinase (LynA) (AID 2283173)
Method in brief: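 Recombinant kinase with fluorescent substrate; product separated from substrate by electrophoretic mobility shift and read 1 h after dosing. Duplicate screen at 25 uM, then concentration-response up to 50 uM; activity scored as signal loss against DMSO.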

Chains of the proteins cited; added tags and fusions are not shown. Lines headed by an entry give the natural chain unless they say otherwise; changes in a name come on top.
UniProt P07948: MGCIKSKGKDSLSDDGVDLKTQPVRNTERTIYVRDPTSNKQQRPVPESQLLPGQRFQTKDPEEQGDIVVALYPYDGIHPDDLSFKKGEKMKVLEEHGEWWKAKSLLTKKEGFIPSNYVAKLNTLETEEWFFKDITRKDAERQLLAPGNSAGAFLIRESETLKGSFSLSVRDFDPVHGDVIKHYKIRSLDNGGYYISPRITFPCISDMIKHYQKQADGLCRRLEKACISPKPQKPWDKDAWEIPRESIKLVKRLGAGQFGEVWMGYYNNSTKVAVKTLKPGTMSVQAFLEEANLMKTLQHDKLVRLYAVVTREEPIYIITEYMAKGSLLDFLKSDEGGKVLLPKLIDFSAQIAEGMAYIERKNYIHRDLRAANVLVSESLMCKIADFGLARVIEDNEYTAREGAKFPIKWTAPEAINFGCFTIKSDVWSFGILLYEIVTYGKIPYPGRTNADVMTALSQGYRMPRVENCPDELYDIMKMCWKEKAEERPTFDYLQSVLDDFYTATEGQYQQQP
UniProt P49137, whole entry, looked up: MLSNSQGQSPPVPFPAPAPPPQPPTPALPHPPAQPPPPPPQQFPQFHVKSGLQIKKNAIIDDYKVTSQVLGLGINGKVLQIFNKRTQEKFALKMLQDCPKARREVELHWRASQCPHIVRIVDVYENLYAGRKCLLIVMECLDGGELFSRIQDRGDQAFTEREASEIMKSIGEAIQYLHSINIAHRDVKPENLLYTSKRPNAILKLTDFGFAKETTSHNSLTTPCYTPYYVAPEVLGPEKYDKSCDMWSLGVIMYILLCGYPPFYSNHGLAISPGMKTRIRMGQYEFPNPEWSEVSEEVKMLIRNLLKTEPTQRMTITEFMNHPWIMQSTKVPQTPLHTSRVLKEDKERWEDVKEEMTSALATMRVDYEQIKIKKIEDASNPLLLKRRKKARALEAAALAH

| SMILES | AC50 | outcome |
| --- | --- | --- |
| Cc1ccc(S(=O)(=O)NC(=O)NN2CCCCCC2)cc1 | inconclusive: 5.03 µM | – |
| CC(C)CC(C)(O)C#CC(C)(O)CC(C)C (configuration not stated) | – | inactive |
| NC(=O)NO | – | inactive |
| CCCCOC(=O)c1ccccc1 | inconclusive: 4.96 µM | – |
| CC(C)CCCCCCCOC(=O)CCCCC(=O)OCCCCCCCC(C)C | – | inactive |
| Cc1ccc(Cl)cc1 | inconclusive: 25 µM | – |

target: human MAP Kinase-Activated Protein Kinase 2 (MAPKAPK2), MAPKAPK2 (gene 9261) (UniProt P49137); assay: NVS_ENZ_hMAPKAPK2: NovaScreen (NVS) Enzymatic Assay for human MAP Kinase-Activated Protein Kinase 2 (MAPKAPK2) (AID 2283178)
Method in brief: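 Chemicals screened in duplicate at 25 uM, then to 50 uM top concentration in concentration-response, against recombinant human MAPKAPK2; substrate conversion read 1 hr post-dosing by fluorescence after electrophoretic mobility-shift separation, loss-of-signal relative to DMSO.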

| SMILES | AC50 | outcome |
| --- | --- | --- |
| O=C(NS(=O)(=O)/C=C/c1cccs1)c1ccc(F)cc1Br | inconclusive: 0.162 µM | – |
| CCOCCOCCOCCO | inconclusive: 25 µM | – |
| OCC(CO)(CBr)CBr | inconclusive: 25 µM | – |
| O=C1c2ccccc2C(=O)N1CCc1noc(-c2ccc(CN3CCCCCC3)s2)n1 | inconclusive: 0.164 µM | – |
| Cc1ccc([N+](=O)[O-])cc1N | inconclusive: 25 µM | – |
| COc1cc(-c2nc(NC(=O)c3cc4cc(C)cc(C)c4n3CC(=O)O)sc2CCC2CCCCC2)c(OC)cc1Cl | active: 6.49 µM | – |
| OCCC(F)(F)C(F)(F)C(F)(F)C(F)(F)C(F)(F)C(F)(F)C(F)(F)C(F)(F)F | – | inactive |
| CCCCN(CCCC)CCCC | inconclusive: 0.683 µM | – |
| COCC(C)OCC(C)O (configuration not stated) | inconclusive: 25 µM | – |
| Cc1oc2c(NC(=O)c3c(Cl)cccc3Cl)cccc2c1C(C)(C)O | – | inactive |
| Cc1occc1C(=O)Nc1ccc(C(=O)N2CCC(F)(F)/C(=C\C(=O)N3CCC(N4CCCCC4)CC3)c3ccccc32)cc1 | inconclusive: 0.0525 µM | – |

At a glance, two of the compounds above:

| SMILES | AC50 | outcome |
| --- | --- | --- |
| OCCC(F)(F)C(F)(F)C(F)(F)C(F)(F)C(F)(F)C(F)(F)C(F)(F)C(F)(F)F | – | inactive |
| CCCCN(CCCC)CCCC | inconclusive: 0.683 µM | – |

target: Collagenase 3 (Homo sapiens) (UniProt P45452); assay: NVS_ENZ_hMMP13: NovaScreen (NVS) Enzymatic Assay for human Matrix Metalloproteinase-13 (MMP13) (AID 2283182)
Method in brief: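 Recombinant MMP13 cleaving fluorescent substrate, cell-free, measured 1 h after dosing. Primary duplicate screen at 25 uM; actives tested in concentration-response up to 50 uM; loss of signal relative to DMSO.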

| SMILES | AC50 | outcome |
| --- | --- | --- |
| Cn1cc[nH]c1=S | inconclusive: 44.4 µM | – |
| CO[C@H]1/C=C/O[C@@]2(C)Oc3c(C)c(O)c4c(O)c(c(/C=N/N5CCN(C)CC5)c(O)c4c3C2=O)NC(=O)/C(C)=C\C=C\[C@H](C)[C@H](O)[C@@H](C)[C@@H](O)[C@@H](C)[C@H](OC(C)=O)[C@@H]1C | – | inactive |
| OC[C@H]1O[C@@](CO)(O[C@H]2O[C@H](CO)[C@@H](O)[C@H](O)[C@H]2O)[C@@H](O)[C@@H]1O | inconclusive: 38 µM | – |
| CCCCC(CC)COC(=O)CCCCCCCCC(=O)OCC(CC)CCCC (configuration not stated) | inconclusive: 45.2 µM | – |
| C=CCOC(Cn1ccnc1)c1ccc(Cl)cc1Cl (configuration not stated) | – | inactive |

From PubChem BioAssay (EPA / NIEHS)
